This assay is described as follows: qHTS Assay to Find Inhibitors of Chronic Active B-Cell Receptor Signaling. The following applies: ABC-DLBCL IkBa-CBG/CBR reporter, luminescence ratio (green luciferase fused to IkBa over red control in TMD8 lymphoma cells), 4 h. A digest of the protocol:
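Compounds up to 46 uM were incubated four hours with TMD8 cells whose green CBG68 luciferase is fused to IkappaBalpha; red CBR luminescence normalised the signal, and concentration-effect curves were fitted to fusion, red and ratio data.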
On the technique in general: Quantitative high-throughput screening tests each substance at several concentrations.

Setting [1] is: measured here: CBR red luminescence, cell number.

In PubChem BioAssay AID493014 (National Center for Advancing Translational Sciences (NCATS), 2011) one finds AC50 data, which are given here for 17 molecules.

The other results are listed elsewhere or left out. Shown are side measurements of this screen, not its main read-out; they come without a call. Compounds called inactive in the main read-out are mostly missing here. Potencies come from curve fits of mixed quality, noted in brackets.

As usually defined, the AC50 is the midpoint of the concentration-response curve, whichever way the signal moves.

For `C#CCOCCOCCOCCNc1nc(N2CCN(C(=O)[C@H](CCC(=O)O)n3cc(C(N)CO)nn3)CC2)nc(N2CCN(C(=O)[C@H](CCC(=O)O)n3cc(C(N)CC(C)C)nn3)CC2)n1` (stereo partly drawn), the AC50 under setting [1] was 35.5 µM [falling, single point].

As for `Cc1ccc(/C=N/NC(=O)c2cc(-c3ccncc3)nc3ccccc23)o1`, the AC50 by setting is: under setting [1], 11.2 µM [rising, partial curve]; (measured here: IkBa-CBG green luminescence) 10 µM [falling, partial curve].

Take `COc1cc(NC(=O)C/C(C)=N/NC(=O)c2cccc(O)c2)c(OC)cc1Cl`: the AC50 under setting [1] was 14.6 µM [falling, partial curve].

With `Clc1cccc(OCCN2CCOCC2)c1`, the AC50 under setting [1] was 5.62 µM [rising, single point]. In the case of `CCN(CC)CCNC(=O)CCc1c(C)nc2c(c(C)nn2-c2ccc(C)c(C)c2)c1C`, the AC50 under setting [1] was 10 µM [falling, partial curve, poor fit]. Same read-out and setting: under `O=C(O)c1ccc2c3c(ncnc13)-c1ccccc1C2=O` stands 11.2 µM [falling, partial curve]; under `CC(=O)Nc1cccc(NC(=O)C(=O)Nc2ccc3c(c2)N(C(=O)C2CC2)CCC3)c1`, 5.8 µM [falling, partial curve]. Turning to `COC(=O)CCC(=O)Nc1ccc2oc3c(c2c1)CCCC3`, the AC50 under setting [1] is 10 µM [falling, partial curve, poor fit]. Regarding `O=C(CSc1cn[nH]n1)Nc1nc2ccccc2s1`, the AC50 under setting [1] is 6.31 µM [falling, partial curve, poor fit]. Consider `CSc1ccc(CN(C)C(=O)CN2C(=O)NC3(CCCC3)C2=O)cc1`, for which the AC50 under setting [1] was 18.4 µM [falling, partial curve].

Take `Cc1ccccc1C(=O)NNC(=O)/C=C/c1ccccc1`: the half-maximal activity concentration (AC50) under setting [1] was 10 µM [falling, partial curve].

With `Cc1ccc2nc(-c3ccc(NC(=O)CCS(=O)(=O)c4ccccc4)cc3)sc2c1`, the concentration at half-maximal activity (AC50) under setting [1] is 0.326 µM [rising, full curve]. For the molecule `CCCCn1c(-c2cccnc2)nc2cc3[nH]c(=O)c(C(C)C)nc3cc21`, the AC50 under setting [1] is 20 µM [falling, partial curve, poor fit]. Regarding `COc1cc(NS(=O)(=O)c2cc(Br)cc3c2N(C(=O)C2CC2)CC3)cc(OC)c1`, the AC50 under setting [1] was 14.1 µM [falling, single point]. Regarding `CCSc1nnc(NC(=O)C2Cc3ccccc3CN2S(=O)(=O)CC)s1` (stereo not drawn), under setting [1], the AC50 was 1.64 µM [rising, full curve, poor fit].

As to `NNC(=O)COc1ccccc1[N+](=O)[O-]`, the AC50 under setting [1] was 12.6 µM [rising, partial curve]. As for `C=CCn1cnc2sc(C(=O)Nc3ccccc3OC)c(C)c2c1=O`, the AC50 under setting [1] is 35.5 µM [rising, single point].
